± gives the standard deviation of the averaged measurements. The list shows a part of the results.
Compound: Nc1nc2c(ncn2[C@@H]2O[C@H](COP(=O)(O)OP(=O)(O)OP(=O)(O)O)[C@@H](O)[C@H]2O)c(=O)[nH]1 [guanosine triphosphate]
Experiment: NP40-soluble protein abundance relative to vehicle (solubility fold change) (ratio); higher = more soluble protein in presence of GTP
Outline: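 Values are fold changes against the detergent-processed vehicle, based on vsn-normalised intensities. Jurkat crude lysate was treated at eight concentrations from 0.1 to 10 mM (10 min at room temperature, then 3 min at 37 °C), solubilised with 0.8% NP40 and benzonase, ultracentrifuged and analysed by TMT-labelled LC-MS/MS over three independent experiments.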

Chains of the proteins cited; added tags and fusions are not shown. Lines headed by an entry give the natural chain unless they say otherwise; changes in a name come on top.
UniProt Q15758: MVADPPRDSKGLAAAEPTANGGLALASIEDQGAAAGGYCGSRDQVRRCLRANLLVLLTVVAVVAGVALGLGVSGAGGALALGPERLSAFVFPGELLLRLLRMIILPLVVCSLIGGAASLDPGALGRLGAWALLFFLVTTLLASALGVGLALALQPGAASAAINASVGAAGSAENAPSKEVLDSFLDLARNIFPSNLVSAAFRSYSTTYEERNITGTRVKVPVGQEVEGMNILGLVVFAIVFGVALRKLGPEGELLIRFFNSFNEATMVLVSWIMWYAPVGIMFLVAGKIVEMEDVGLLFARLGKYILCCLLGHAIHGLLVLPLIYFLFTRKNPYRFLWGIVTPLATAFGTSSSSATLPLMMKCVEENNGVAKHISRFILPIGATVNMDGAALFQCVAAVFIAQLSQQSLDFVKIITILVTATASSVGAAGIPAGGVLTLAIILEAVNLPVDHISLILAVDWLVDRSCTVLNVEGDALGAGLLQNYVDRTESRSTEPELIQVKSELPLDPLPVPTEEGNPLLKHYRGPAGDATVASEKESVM
UniProt O00233: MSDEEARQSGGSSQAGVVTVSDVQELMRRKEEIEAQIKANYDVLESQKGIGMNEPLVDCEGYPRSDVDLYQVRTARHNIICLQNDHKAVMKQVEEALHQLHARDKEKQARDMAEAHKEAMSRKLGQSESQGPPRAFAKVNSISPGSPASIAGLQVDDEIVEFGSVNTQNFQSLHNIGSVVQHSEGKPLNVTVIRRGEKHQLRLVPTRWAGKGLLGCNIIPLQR
UniProt O60234, whole entry: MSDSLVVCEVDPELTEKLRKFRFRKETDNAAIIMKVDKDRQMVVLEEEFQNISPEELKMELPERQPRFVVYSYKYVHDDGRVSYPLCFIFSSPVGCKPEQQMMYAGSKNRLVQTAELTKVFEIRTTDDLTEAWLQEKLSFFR
UniProt O15127: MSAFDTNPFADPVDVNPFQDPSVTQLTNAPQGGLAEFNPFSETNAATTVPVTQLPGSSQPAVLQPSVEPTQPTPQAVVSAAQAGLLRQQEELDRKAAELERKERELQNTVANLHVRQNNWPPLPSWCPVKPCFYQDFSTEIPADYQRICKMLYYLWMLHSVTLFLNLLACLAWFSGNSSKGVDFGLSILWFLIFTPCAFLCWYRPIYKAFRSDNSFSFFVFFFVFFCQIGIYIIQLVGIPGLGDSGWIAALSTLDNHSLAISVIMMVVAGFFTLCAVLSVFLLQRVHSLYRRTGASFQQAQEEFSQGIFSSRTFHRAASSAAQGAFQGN
UniProt O15047, whole entry: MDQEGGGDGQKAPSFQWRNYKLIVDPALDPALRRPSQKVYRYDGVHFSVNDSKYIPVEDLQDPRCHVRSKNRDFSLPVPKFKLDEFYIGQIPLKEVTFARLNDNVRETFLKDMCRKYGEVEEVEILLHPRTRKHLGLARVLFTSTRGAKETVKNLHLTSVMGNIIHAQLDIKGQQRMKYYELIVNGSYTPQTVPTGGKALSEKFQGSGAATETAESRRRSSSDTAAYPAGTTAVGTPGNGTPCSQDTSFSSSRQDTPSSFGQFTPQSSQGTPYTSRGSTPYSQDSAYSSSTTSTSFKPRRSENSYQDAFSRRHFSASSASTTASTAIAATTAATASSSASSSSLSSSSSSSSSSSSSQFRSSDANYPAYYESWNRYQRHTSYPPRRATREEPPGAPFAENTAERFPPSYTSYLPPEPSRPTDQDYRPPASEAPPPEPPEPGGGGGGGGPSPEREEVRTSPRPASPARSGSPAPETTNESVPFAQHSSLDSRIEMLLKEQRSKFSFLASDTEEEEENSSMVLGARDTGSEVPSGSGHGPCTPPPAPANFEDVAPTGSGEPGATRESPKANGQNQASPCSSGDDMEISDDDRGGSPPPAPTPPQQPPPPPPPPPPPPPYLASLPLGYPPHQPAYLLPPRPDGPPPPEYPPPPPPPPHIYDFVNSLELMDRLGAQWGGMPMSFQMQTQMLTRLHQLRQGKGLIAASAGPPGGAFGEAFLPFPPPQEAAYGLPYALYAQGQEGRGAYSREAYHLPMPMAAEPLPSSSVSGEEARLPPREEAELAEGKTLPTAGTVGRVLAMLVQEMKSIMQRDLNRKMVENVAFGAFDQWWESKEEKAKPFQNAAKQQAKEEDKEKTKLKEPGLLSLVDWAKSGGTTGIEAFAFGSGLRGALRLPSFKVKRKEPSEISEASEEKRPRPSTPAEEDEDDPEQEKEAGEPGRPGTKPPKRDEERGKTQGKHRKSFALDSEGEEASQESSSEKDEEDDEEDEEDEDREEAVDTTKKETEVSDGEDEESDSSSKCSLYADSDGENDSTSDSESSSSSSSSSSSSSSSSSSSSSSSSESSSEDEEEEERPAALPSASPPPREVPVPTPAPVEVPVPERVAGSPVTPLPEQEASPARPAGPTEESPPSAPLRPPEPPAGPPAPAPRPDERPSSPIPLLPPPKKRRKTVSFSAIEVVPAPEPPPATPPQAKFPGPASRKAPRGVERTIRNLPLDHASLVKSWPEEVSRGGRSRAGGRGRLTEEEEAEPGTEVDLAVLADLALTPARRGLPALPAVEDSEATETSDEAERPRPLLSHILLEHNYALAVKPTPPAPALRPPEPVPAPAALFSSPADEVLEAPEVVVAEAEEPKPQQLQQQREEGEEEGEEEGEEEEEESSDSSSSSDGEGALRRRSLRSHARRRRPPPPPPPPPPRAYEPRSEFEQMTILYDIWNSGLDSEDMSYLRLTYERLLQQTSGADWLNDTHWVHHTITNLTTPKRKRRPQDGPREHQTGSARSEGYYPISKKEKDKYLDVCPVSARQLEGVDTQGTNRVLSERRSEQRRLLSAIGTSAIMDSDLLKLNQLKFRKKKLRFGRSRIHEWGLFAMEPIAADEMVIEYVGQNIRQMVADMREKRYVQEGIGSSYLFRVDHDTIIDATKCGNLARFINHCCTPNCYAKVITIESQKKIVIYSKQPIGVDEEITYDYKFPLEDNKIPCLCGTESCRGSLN
UniProt O43709: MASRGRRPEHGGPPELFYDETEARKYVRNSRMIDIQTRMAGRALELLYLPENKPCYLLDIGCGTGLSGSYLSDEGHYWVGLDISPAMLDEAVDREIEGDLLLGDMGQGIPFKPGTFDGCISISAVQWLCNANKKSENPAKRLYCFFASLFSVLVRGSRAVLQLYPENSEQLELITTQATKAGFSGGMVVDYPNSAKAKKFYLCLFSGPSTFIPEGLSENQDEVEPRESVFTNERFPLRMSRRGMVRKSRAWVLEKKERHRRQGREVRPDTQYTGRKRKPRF
UniProt O60343: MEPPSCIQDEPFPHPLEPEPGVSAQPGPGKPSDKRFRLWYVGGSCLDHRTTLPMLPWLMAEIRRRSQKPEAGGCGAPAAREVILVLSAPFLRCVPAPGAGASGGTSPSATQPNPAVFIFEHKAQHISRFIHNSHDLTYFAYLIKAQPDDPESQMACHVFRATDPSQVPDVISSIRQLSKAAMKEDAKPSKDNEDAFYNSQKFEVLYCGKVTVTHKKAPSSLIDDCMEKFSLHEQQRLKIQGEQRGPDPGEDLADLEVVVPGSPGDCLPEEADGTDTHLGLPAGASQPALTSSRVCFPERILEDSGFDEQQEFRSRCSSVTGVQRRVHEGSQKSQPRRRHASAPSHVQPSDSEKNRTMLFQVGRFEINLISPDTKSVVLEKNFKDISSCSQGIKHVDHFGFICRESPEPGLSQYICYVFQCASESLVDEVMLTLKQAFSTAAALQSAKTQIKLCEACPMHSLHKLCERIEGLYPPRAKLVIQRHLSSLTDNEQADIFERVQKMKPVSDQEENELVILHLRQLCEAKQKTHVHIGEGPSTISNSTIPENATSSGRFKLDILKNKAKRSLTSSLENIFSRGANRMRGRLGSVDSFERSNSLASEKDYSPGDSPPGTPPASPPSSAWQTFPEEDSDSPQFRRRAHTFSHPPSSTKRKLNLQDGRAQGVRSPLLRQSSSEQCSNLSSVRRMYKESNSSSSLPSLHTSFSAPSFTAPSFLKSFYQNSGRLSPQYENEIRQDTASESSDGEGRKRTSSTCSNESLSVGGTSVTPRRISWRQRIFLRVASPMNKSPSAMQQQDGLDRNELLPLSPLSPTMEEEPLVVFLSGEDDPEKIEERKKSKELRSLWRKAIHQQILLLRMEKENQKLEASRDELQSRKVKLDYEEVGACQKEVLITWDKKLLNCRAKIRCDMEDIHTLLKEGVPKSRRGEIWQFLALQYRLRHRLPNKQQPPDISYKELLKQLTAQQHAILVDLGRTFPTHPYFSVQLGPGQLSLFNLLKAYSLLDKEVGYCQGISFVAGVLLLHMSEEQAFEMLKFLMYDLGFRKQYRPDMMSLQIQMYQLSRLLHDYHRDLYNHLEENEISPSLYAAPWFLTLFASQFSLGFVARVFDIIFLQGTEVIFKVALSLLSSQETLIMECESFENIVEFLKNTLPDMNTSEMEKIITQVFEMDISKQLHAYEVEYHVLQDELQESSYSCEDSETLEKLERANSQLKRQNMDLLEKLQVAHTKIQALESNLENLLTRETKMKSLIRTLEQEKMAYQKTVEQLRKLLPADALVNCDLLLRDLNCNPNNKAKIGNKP
UniProt P22087: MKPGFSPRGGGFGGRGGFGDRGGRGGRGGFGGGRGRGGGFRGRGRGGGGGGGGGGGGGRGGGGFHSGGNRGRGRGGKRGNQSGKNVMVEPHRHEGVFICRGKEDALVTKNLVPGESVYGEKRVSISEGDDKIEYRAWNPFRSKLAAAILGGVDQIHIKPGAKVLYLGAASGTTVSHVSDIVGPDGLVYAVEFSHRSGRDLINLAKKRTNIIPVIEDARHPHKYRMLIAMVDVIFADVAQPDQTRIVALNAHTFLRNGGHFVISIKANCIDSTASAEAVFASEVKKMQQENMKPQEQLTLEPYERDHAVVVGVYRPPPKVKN
UniProt Q15642: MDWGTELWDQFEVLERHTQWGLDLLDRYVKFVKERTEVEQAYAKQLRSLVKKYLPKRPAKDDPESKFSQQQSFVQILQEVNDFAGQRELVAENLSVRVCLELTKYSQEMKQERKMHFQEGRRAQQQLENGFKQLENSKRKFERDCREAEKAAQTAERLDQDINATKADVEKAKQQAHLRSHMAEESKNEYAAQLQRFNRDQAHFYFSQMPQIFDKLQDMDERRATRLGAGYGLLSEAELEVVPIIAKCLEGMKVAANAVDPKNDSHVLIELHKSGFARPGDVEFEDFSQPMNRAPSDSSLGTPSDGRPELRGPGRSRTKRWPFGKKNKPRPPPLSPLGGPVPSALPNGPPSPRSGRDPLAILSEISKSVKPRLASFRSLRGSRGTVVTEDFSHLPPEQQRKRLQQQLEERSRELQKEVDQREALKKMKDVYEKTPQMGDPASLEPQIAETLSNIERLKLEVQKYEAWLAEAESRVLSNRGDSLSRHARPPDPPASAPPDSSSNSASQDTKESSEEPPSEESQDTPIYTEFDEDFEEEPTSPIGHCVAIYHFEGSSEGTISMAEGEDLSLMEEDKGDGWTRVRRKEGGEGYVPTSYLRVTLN
UniProt O60488: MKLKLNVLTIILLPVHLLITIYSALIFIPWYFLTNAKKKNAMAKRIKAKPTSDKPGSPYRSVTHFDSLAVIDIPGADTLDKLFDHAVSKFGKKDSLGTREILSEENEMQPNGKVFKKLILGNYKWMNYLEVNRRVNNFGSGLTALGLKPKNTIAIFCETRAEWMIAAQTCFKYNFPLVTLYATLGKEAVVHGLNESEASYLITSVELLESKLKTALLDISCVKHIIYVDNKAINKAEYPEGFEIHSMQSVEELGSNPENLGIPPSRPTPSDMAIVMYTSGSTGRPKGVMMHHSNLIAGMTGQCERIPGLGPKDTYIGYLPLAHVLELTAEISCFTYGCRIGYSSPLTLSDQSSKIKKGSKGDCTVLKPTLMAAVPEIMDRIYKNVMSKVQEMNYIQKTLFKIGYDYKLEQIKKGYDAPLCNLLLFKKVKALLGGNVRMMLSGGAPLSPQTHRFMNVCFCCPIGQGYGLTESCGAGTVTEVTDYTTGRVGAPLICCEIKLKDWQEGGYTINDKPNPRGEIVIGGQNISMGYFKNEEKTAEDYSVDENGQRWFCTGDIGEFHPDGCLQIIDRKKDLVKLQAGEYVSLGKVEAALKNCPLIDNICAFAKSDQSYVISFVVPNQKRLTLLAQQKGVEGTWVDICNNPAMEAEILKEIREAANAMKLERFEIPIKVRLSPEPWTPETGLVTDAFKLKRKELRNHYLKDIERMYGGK
UniProt O00506, whole entry, looked up: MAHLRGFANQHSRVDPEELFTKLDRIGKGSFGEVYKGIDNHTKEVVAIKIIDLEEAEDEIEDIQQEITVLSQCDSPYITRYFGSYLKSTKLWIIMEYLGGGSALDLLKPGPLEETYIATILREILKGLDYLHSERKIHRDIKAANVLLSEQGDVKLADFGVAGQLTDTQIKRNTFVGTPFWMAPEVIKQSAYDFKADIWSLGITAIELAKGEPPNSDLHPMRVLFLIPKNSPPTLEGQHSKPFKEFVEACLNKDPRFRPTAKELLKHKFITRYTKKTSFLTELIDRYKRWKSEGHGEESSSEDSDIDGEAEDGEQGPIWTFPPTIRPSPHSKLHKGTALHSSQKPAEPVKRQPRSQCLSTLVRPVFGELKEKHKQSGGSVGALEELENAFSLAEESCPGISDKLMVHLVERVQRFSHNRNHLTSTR

| Target | NP40-soluble protein abundance (concentration: 0.1mM) | NP40-soluble protein abundance (concentration: 0.5mM) | NP40-soluble protein abundance (concentration: 1mM) | NP40-soluble protein abundance (concentration: 2mM) | NP40-soluble protein abundance (concentration: 4mM) | NP40-soluble protein abundance (concentration: 6mM) | NP40-soluble protein abundance (concentration: 8mM) | NP40-soluble protein abundance (concentration: 10mM) |
| --- | --- | --- | --- | --- | --- | --- | --- | --- |
| RANBP6 (UniProt O60518) | 1.02 ± 0.1 | 1.01 ± 0.055 | 0.973 ± 0.022 | 0.965 ± 0.029 | 1.05 ± 0.02 | 0.992 ± 0.078 | 0.9902 ± 0.0074 | 0.993 ± 0.045 |
| M0QXM4 and related entries (UniProt Q15758) | 0.949 ± 0.042 | 0.89 ± 0.09 | 0.933 ± 0.13 | 0.907 ± 0.1 | 0.913 ± 0.11 | 0.928 ± 0.096 | 0.919 ± 0.085 | 0.945 ± 0.12 |
| UniProt O43852 and related entries | 0.872 ± 0.044 | 0.89 ± 0.095 | 0.936 ± 0.073 | 0.896 ± 0.1 | 0.878 ± 0.097 | 0.915 ± 0.11 | 0.888 ± 0.088 | 0.908 ± 0.093 |
| UniProt O43747 and related entries | 1.04 ± 0.075 | 1.04 ± 0.086 | 0.965 ± 0.04 | 0.961 ± 0.085 | 0.949 ± 0.089 | 0.923 ± 0.067 | 0.932 ± 0.035 | 0.912 ± 0.082 |
| TIMM44 (UniProt O43615) | 0.992 ± 0.035 | 0.989 ± 0.041 | 0.993 ± 0.057 | 0.946 ± 0.058 | 0.954 ± 0.09 | 0.914 ± 0.082 | 0.946 ± 0.058 | 0.93 ± 0.064 |
| PSMD9 (UniProt O00233) | 0.902 ± 0.066 | 0.916 ± 0.11 | 0.935 ± 0.071 | 0.917 ± 0.1 | 0.903 ± 0.065 | 0.913 ± 0.082 | 0.909 ± 0.069 | 0.93 ± 0.076 |
| UniProt O00522 and related entries | 1.13 ± 0.045 | 1.14 ± 0.086 | 1.11 ± 0.025 | 1.08 ± 0.044 | 1.1 ± 0.061 | 1.009 ± 0.002 | 1.05 ± 0.087 | 1.02 ± 0.057 |
| M0R1D2 and related entries (UniProt O60234) | 0.954 ± 0.063 | 0.917 ± 0.046 | 0.977 ± 0.066 | 0.926 ± 0.083 | 0.917 ± 0.084 | 0.932 ± 0.084 | 0.905 ± 0.082 | 0.89 ± 0.093 |
| UniProt O43399 and related entries | 0.814 ± 0.11 | 0.76 ± 0.039 | 1 ± 0.15 | 0.946 ± 0.028 | 0.91 ± 0.03 | 0.916 ± 0.033 | 0.875 ± 0.16 | 1.08 ± 0.15 |
| EEF1E1 (UniProt O43324) | 1.05 ± 0.28 | 0.987 ± 0.27 | 1.24 ± 0.41 | 1.43 ± 0.46 | 1.41 ± 0.44 | 1.39 ± 0.45 | 1.22 ± 0.39 | 1.31 ± 0.55 |
| DHX16 (UniProt O60231) | 0.986 ± 0.029 | 1.01 ± 0.044 | 1.02 ± 0.039 | 0.994 ± 0.033 | 0.995 ± 0.025 | 0.977 ± 0.029 | 0.993 ± 0.058 | 1 ± 0.037 |
| MRPS12 (UniProt O15235) | 1.11 ± 0.14 | 1.23 ± 0.26 | 1.34 ± 0.37 | 1.47 ± 0.48 | 1.51 ± 0.47 | 1.44 ± 0.45 | 1.38 ± 0.44 | 1.3 ± 0.43 |
| SCAMP2 (UniProt O15127) | 1 ± 0.05 | 0.984 ± 0.059 | 1.01 ± 0.092 | 0.935 ± 0.076 | 0.975 ± 0.12 | 0.971 ± 0.11 | 0.958 ± 0.046 | 0.971 ± 0.088 |
| UniProt O14818 and related entries | 0.972 ± 0.015 | 1.03 ± 0.028 | 1.02 ± 0.075 | 1.03 ± 0.12 | 1.05 ± 0.13 | 1.09 ± 0.14 | 1.06 ± 0.14 | 1.03 ± 0.15 |
| SYNJ2 (UniProt O15056) | 1.06 ± 0.11 | 1.02 ± 0.061 | 1.03 ± 0.047 | 1.02 ± 0.068 | 1.03 ± 0.043 | 0.993 ± 0.035 | 0.986 ± 0.088 | 0.931 ± 0.041 |
| UniProt O15042 and related entries | 1 ± 0.011 | 1.08 ± 0.013 | 1.15 ± 0.05 | 1.18 ± 0.094 | 1.24 ± 0.13 | 1.32 ± 0.14 | 1.4 ± 0.22 | 1.37 ± 0.23 |
| SETD1A (UniProt O15047) | 1.03 ± 0.034 | 1.04 ± 0.075 | 1.07 ± 0.033 | 1.07 ± 0.051 | 1.06 ± 0.037 | 1.07 ± 0.052 | 1.09 ± 0.065 | 1.08 ± 0.059 |
| DHX15 (UniProt O43143) | 1.12 ± 0.089 | 1.23 ± 0.13 | 1.16 ± 0.092 | 1.2 ± 0.14 | 1.22 ± 0.12 | 1.23 ± 0.11 | 1.19 ± 0.071 | 1.17 ± 0.075 |
| UniProt O43709 | 1.03 ± 0.038 | 1.06 ± 0.042 | 1.07 ± 0.025 | 1.03 ± 0.053 | 1.07 ± 0.052 | 1.09 ± 0.043 | 1.16 ± 0.085 | 1.12 ± 0.03 |
| UniProt O60343 and related entries | 1.02 ± 0.036 | 1.03 ± 0.03 | 0.979 ± 0.014 | 0.967 ± 0.047 | 0.953 ± 0.044 | 0.944 ± 0.052 | 0.965 ± 0.054 | 0.938 ± 0.066 |
| M0R2U2 and related entries (UniProt P22087) | 1.02 ± 0.054 | 1.03 ± 0.032 | 1.08 ± 0.068 | 1.21 ± 0.056 | 1.52 ± 0.068 | 1.77 ± 0.082 | 2.13 ± 0.11 | 2.47 ± 0.083 |
| TOR1A (UniProt O14656) | 1 ± 0.052 | 1.03 ± 0.075 | 0.93 ± 0.063 | 0.946 ± 0.031 | 0.876 ± 0.018 | 0.903 ± 0.03 | 0.851 ± 0.024 | 0.863 ± 0.022 |
| POLR3A (UniProt O14802) | 1.09 ± 0.14 | 1.11 ± 0.17 | 1.09 ± 0.14 | 1.16 ± 0.24 | 1.15 ± 0.21 | 1.12 ± 0.21 | 1.09 ± 0.18 | 1.05 ± 0.2 |
| M0R0F9 and related entries (UniProt Q15642) | 0.909 ± 0.067 | 0.855 ± 0.029 | 0.872 ± 0.08 | 0.859 ± 0.024 | 0.846 ± 0.041 | 0.877 ± 0.04 | 0.87 ± 0.058 | 0.8 ± 0.021 |
| UniProt O60488 and related entries | 1.02 ± 0.028 | 1.08 ± 0.053 | 0.9363 ± 0.0046 | 0.939 ± 0.066 | 0.908 ± 0.045 | 0.905 ± 0.049 | 0.894 ± 0.039 | 0.843 ± 0.086 |
| UniProt O00273 and related entries | 0.89 ± 0.086 | 0.9 ± 0.093 | 0.903 ± 0.11 | 0.869 ± 0.11 | 0.859 ± 0.11 | 0.875 ± 0.1 | 0.861 ± 0.099 | 0.882 ± 0.098 |
| UniProt O14733 and related entries | 1 ± 0.011 | 1.05 ± 0.08 | 1.01 ± 0.054 | 1.01 ± 0.03 | 0.993 ± 0.058 | 0.955 ± 0.035 | 0.972 ± 0.041 | 0.944 ± 0.037 |
| YKT6 (UniProt O15498) | 0.907 ± 0.085 | 0.938 ± 0.077 | 0.876 ± 0.064 | 0.86 ± 0.036 | 0.839 ± 0.048 | 0.853 ± 0.067 | 0.82 ± 0.078 | 0.814 ± 0.078 |
| UniProt O00506 | 1.05 ± 0.029 | 1.04 ± 0.051 | 1.01 ± 0.051 | 1.03 ± 0.062 | 0.994 ± 0.02 | 0.973 ± 0.056 | 0.997 ± 0.03 | 1.02 ± 0.041 |
| GMDS (UniProt O60547) | 1.04 ± 0.019 | 1.06 ± 0.056 | 0.977 ± 0.012 | 0.979 ± 0.031 | 0.964 ± 0.05 | 0.963 ± 0.031 | 0.9495 ± 0.0086 | 0.93 ± 0.029 |

Copied from above (six entries):

| Target | NP40-soluble protein abundance (concentration: 0.1mM) | NP40-soluble protein abundance (concentration: 0.5mM) | NP40-soluble protein abundance (concentration: 1mM) | NP40-soluble protein abundance (concentration: 2mM) | NP40-soluble protein abundance (concentration: 4mM) | NP40-soluble protein abundance (concentration: 6mM) | NP40-soluble protein abundance (concentration: 8mM) | NP40-soluble protein abundance (concentration: 10mM) |
| --- | --- | --- | --- | --- | --- | --- | --- | --- |
| M0R2U2 and related entries (UniProt P22087) | 1.02 ± 0.054 | 1.03 ± 0.032 | 1.08 ± 0.068 | 1.21 ± 0.056 | 1.52 ± 0.068 | 1.77 ± 0.082 | 2.13 ± 0.11 | 2.47 ± 0.083 |
| TOR1A (UniProt O14656) | 1 ± 0.052 | 1.03 ± 0.075 | 0.93 ± 0.063 | 0.946 ± 0.031 | 0.876 ± 0.018 | 0.903 ± 0.03 | 0.851 ± 0.024 | 0.863 ± 0.022 |
| POLR3A (UniProt O14802) | 1.09 ± 0.14 | 1.11 ± 0.17 | 1.09 ± 0.14 | 1.16 ± 0.24 | 1.15 ± 0.21 | 1.12 ± 0.21 | 1.09 ± 0.18 | 1.05 ± 0.2 |
| M0R0F9 and related entries (UniProt Q15642) | 0.909 ± 0.067 | 0.855 ± 0.029 | 0.872 ± 0.08 | 0.859 ± 0.024 | 0.846 ± 0.041 | 0.877 ± 0.04 | 0.87 ± 0.058 | 0.8 ± 0.021 |
| UniProt O60488 and related entries | 1.02 ± 0.028 | 1.08 ± 0.053 | 0.9363 ± 0.0046 | 0.939 ± 0.066 | 0.908 ± 0.045 | 0.905 ± 0.049 | 0.894 ± 0.039 | 0.843 ± 0.086 |
| UniProt O00273 and related entries | 0.89 ± 0.086 | 0.9 ± 0.093 | 0.903 ± 0.11 | 0.869 ± 0.11 | 0.859 ± 0.11 | 0.875 ± 0.1 | 0.861 ± 0.099 | 0.882 ± 0.098 |
